Assay results: patent US9888688B2, “Tetrazolinone compounds and applications thereof” (Sumitomo Chemical Company, Limited, priority 2013, dated 2018)
Some of these results come from one statement about several compounds together.

Legend:
Type in all cases: in vivo
[1] = test system: barley scald fungus (Rhynchosporium secalis); assay: Barley scald control test, foliar spray on barley (Test Examples 20, 21); conditions: 200 ppm foliar spray, barley NISHINOHOSHI, inoculated after 2 days
[2] = test system: soybean rust fungus (Phakopsora pachyrhizi); assay: Soybean rust control test, foliar spray on soybean (Test Example 19); conditions: 200 ppm foliar spray, soybean KUROSENGOKU, inoculated after 2 days
[3] = test system: barley net blotch fungus (Pyrenophora teres); assay: Barley net blotch control test, foliar spray on barley (Test Examples 4, 16, 17, 18); conditions: barley NISHINOHOSHI, inoculated after 2 days
[4] = test system: wheat leaf blotch fungus (Septoria tritici); assay: Wheat leaf blotch control test, spray after inoculation (Test Example 8); conditions: 200 ppm foliar spray 3 days after inoculation, wheat APOGEE
[5] = test system: kidney bean stem rot fungus (Sclerotinia sclerotiorum); assay: Kidney bean stem rot control test, foliar spray on kidney bean (Test Examples 5, 22, 23); conditions: kidney bean NAGAUZURA NATANE, four days after inoculation
[6] = test system: wheat leaf blotch fungus (Septoria tritici); assay: Wheat leaf blotch control test, spray before inoculation (Test Examples 6, 9, 10, Comparative Test Example); conditions: wheat APOGEE, inoculated after 4 days
[7] = test system: cucumber anthracnose fungus (Colletotrichum lagenarium); assay: Cucumber anthracnose control test (Test Examples 28, 29); conditions: cucumber SAGAMI HANJIRO, inoculated after one day
[8] = test system: cucumber corynespora leaf spot fungus (Corynespora cassicola); assay: Cucumber corynespora leaf spot control test (Test Examples 26, 27); conditions: cucumber SAGAMI HANJIRO, inoculated after one day, 7 days

Measured: area of lesion spots relative to that on an untreated plant

Cc1cccc(-c2ccc(OCc3ccccc3-n3nnn(C)c3=O)c(C)c2)n1 [Present Compound 50]
≤ 30%: [1] | [2] | [3]; 200 ppm foliar spray | [3]; 500 ppm foliar spray | [4] | [5]; 200 ppm foliar spray | [5]; 500 ppm foliar spray | [6]; 200 ppm foliar spray | [6]; 500 ppm foliar spray

Cc1cccc(-c2cc(C)c(OCc3c(C)cccc3-n3nnn(C)c3=O)cc2C)n1 [Present Compound 153]
≤ 30%: [1] | [2] | [3]; 200 ppm foliar spray | [3]; 500 ppm foliar spray | [4] | [5]; 500 ppm foliar spray | [6]; 200 ppm foliar spray | [6]; 500 ppm foliar spray

COc1cccc(-n2nnn(C)c2=O)c1COc1ccc(-c2cccc(Cl)n2)cc1C [Present Compound 38]
≤ 30%: [1] | [2] | [3]; 200 ppm foliar spray | [3]; 500 ppm foliar spray | [4] | [5]; 200 ppm foliar spray | [5]; 500 ppm foliar spray | [6]; 200 ppm foliar spray | [6]; 500 ppm foliar spray

CCc1cccc(-c2ccc(OCc3c(CC)cccc3-n3nnn(C)c3=O)c(C)c2)n1 [Present Compound 43]
≤ 30%: [1] | [2] | [3]; 200 ppm foliar spray | [3]; 500 ppm foliar spray | [7]; 200 ppm foliar spray | [4] | [5]; 200 ppm foliar spray | [5]; 500 ppm foliar spray | [6]; 200 ppm foliar spray | [6]; 500 ppm foliar spray

CCc1cccc(-c2ccc(OCc3c(C4CC4)cccc3-n3nnn(C)c3=O)c(C)c2)n1 [Present Compound 47]
≤ 30%: [1] | [2] | [3]; 200 ppm foliar spray | [3]; 500 ppm foliar spray | [7]; 200 ppm foliar spray | [4] | [5]; 200 ppm foliar spray | [5]; 500 ppm foliar spray | [6]; 200 ppm foliar spray | [6]; 500 ppm foliar spray

Cc1cccc(-c2ccc(OCc3c(C)cccc3-n3nnn(C)c3=O)c(C3CC3)c2)n1 [Present Compound 100, 1-{2-[2-cyclopropyl-4-(6-methylpyridin-2-yl)phenoxymethyl]-3-methylphenyl}-4-methyl-1,4-dihydrotetrazol-5-one]
≤ 30%: [1] | [2] | [3]; 200 ppm foliar spray | [3]; 500 ppm foliar spray | [7]; 200 ppm foliar spray | [4] | [5]; 200 ppm foliar spray | [5]; 500 ppm foliar spray | [6]; 200 ppm foliar spray | [6]; 500 ppm foliar spray

Cc1cc(-c2cccc(C(C)C)n2)ccc1OCc1c(C)cccc1-n1nnn(C)c1=O [Present Compound 149]
≤ 30%: [1] | [2] | [3]; 200 ppm foliar spray | [3]; 500 ppm foliar spray | [7]; 200 ppm foliar spray | [8]; 200 ppm foliar spray | [5]; 200 ppm foliar spray | [5]; 500 ppm foliar spray | [6]; 200 ppm foliar spray | [6]; 500 ppm foliar spray

Cc1cc(-c2cnccn2)c(C)cc1OCc1c(C)cccc1-n1nnn(C)c1=O [Present Compound 165]
≤ 30%: [1] | [2] | [3]; 200 ppm foliar spray | [3]; 500 ppm foliar spray | [7]; 200 ppm foliar spray | [8]; 200 ppm foliar spray | [5]; 200 ppm foliar spray | [5]; 500 ppm foliar spray | [6]; 200 ppm foliar spray | [6]; 500 ppm foliar spray

COc1cccc(-n2nnn(C)c2=O)c1COc1ccc(-c2ccccn2)cc1C [Present Compound 4]
≤ 30%: [1] | [2] | [3]; 200 ppm foliar spray | [3]; 500 ppm foliar spray | [4] | [5]; 50 ppm foliar spray | [5]; 500 ppm foliar spray | [6]; 200 ppm foliar spray | [6]; 500 ppm foliar spray

COc1ccncc1-c1cc(C)c(OCc2c(C)cccc2-n2nnn(C)c2=O)cc1C [Present Compound 192]
≤ 30%: [1] | [2] | [3]; 200 ppm foliar spray | [3]; 500 ppm foliar spray | [7]; 200 ppm foliar spray | [8]; 200 ppm foliar spray | [5]; 500 ppm foliar spray | [6]; 500 ppm foliar spray

COc1cccnc1-c1cc(C)c(OCc2c(C)cccc2-n2nnn(C)c2=O)cc1C [Present Compound 160]
≤ 30%: [1] | [2] | [3]; 200 ppm foliar spray | [3]; 500 ppm foliar spray | [7]; 200 ppm foliar spray | [8]; 200 ppm foliar spray | [5]; 200 ppm foliar spray | [5]; 500 ppm foliar spray | [6]; 200 ppm foliar spray | [6]; 500 ppm foliar spray

CCc1ccnc(-c2ccc(OCc3c(C)cccc3-n3nnn(C)c3=O)c(C)c2)n1 [Present Compound 139]
≤ 30%: [1] | [2] | [3]; 200 ppm foliar spray | [3]; 500 ppm foliar spray | [7]; 50 ppm foliar spray | [8]; 200 ppm foliar spray | [5]; 200 ppm foliar spray | [5]; 500 ppm foliar spray | [6]; 200 ppm foliar spray

Cc1cc(-c2ccc(F)cn2)c(C)cc1OCc1c(Cl)cccc1-n1nnn(C)c1=O [Present Compound 217]
≤ 30%: [1] | [2] | [3]; 200 ppm foliar spray | [3]; 500 ppm foliar spray | [4] | [5]; 500 ppm foliar spray | [6]; 200 ppm foliar spray | [6]; 500 ppm foliar spray

Cc1ccnc(-c2ccc(OCc3c(C)cccc3-n3nnn(C)c3=O)c(C)c2)n1 [Present Compound 91]
≤ 30%: [1] | [2] | [3]; 200 ppm foliar spray | [3]; 500 ppm foliar spray | [7]; 50 ppm foliar spray | [8]; 50 ppm foliar spray | [5]; 50 ppm foliar spray | [5]; 500 ppm foliar spray | [6]; 200 ppm foliar spray | [6]; 500 ppm foliar spray
